Reference: PubChem BioAssay AID504444 (National Center for Advancing Translational Sciences (NCATS), 2011)
Screen size: about 360,000 compounds; about 7,500 (2.1%) were called active. Inconclusive means that the source gave no clear call. Such entries were picked first, then a sample of the others. Calls come from the whole dose curve; as a rule, active = well fitted inhibition curve with a large enough effect; inconclusive = small, poorly fitted or top-dose-only effect, or effect the other way; inactive = flat fitted curve, though single readings scatter. Potencies of inconclusive entries are doubtful fits and often do not repeat.

Assay: Nrf2 qHTS screen for inhibitors; note: nearly all actives have a fitted effect of over 60% in size
Details: A549 ARE-Fluc reporter, luciferase luminescence, 18-24 h; series mostly up to 46 µM
Summary of the method: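 Concentration-response testing used A549 ARE_Fluc cells at 5000 cells/well. Following an 18-24 h compound incubation, viability was read by fluorescence (Ex 405/Em 525) and luciferase output by luminescence.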
Potency is the fitted concentration of half-maximal effect.

Row | SMILES | Potency
1 | CCOC(=O)COn1c(-c2cccc(Cl)c2)nc2ccc([N+](=O)[O-])cc21 | inactive
2 | O=C(CCC(=O)N1CCN(S(=O)(=O)c2ccc([N+](=O)[O-])cc2)CC1)N1CCOCC1 | inactive
3 | Cc1ccc(/C=C\c2nccc3c2[nH]c2ccccc23)cc1 | inconclusive: 8.2 µM [activator, partial curve]
4 | O=C(CCCn1c(=O)c2cccn2c2cccnc21)NCc1ccccc1Br | inconclusive: 0.13 µM [activator, full curve, poor fit]
5 | CSc1nc(-c2ccco2)nn1C(=O)c1ccc(C)cc1 | inconclusive: 5.8 µM [falling, partial curve]
6 | O=C1C2CCCN2C(c2ccccc2)N1c1ccc(Cl)cc1 (stereo not drawn) | inconclusive: 25.9 µM [activator, single point]
7 | Cc1ccc(C(=O)CN2/C(=C(\O)c3ccccc3)C(=O)c3ccccc3S2(=O)=O)c(C)c1 | inconclusive: 29.1 µM [falling, single point]
8 | Cc1c(C)n(Cc2ccc(F)cc2)c2ccc(C(=O)NCc3ccco3)cc12 | inconclusive: 10.3 µM [activator, partial curve, poor fit]
9 | Cc1ccc(-c2n[nH]c(=O)c3ccccc23)cc1S(=O)(=O)NC(C)(C)C | inconclusive: 20.6 µM [falling, single point]
10 | O=C(N/N=C/c1ccc(O)c([N+](=O)[O-])c1)C1CC1(c1ccccc1)c1ccccc1 (stereo not drawn) | inconclusive: 18.4 µM [falling, single point]
11 | O=C(Cc1ccccc1[N+](=O)[O-])NCc1ccc2c(c1)OCO2 | inconclusive: 16.4 µM [activator, partial curve]
12 | Cn1c(=O)c2c(ncn2CC(O)CNc2cccc(Cl)c2)n(C)c1=O (stereo not drawn) | inconclusive: 16.4 µM [falling, partial curve]
13 | CCC1SC2=NC(C)=C(C(=O)OCC(C)C)C(/C=C/c3ccccc3OC)N2C1=O (stereo not drawn) | inconclusive: 16.4 µM [falling, partial curve]
14 | CN(C)S(=O)(=O)c1cccc(C(=O)Nc2ccc3c(c2)CCC3)c1 | inconclusive: 4.11 µM [activator, partial curve]
15 | COCCOc1ccc(C(F)(F)F)cc1NC(=O)CN1C(=O)NC(C)(c2ccc3c(c2)OCO3)C1=O (stereo not drawn) | inconclusive: 18.4 µM [falling, single point]
16 | COc1ccccc1C1C(C(=O)c2sc(C)nc2C)=C(O)C(=O)N1CCN1CCOCC1 (stereo not drawn) | inconclusive: 8.2 µM [activator, partial curve]
17 | O=C(c1ccc2c(c1)OCO2)N1CCN(c2ccc(Cl)cc2)CC1 | inconclusive: 25.9 µM [falling, partial curve, poor fit]
18 | OC(COc1ccc2ccccc2c1Cl)CN1CCOCC1 (stereo not drawn) | inconclusive: 16.4 µM [activator, single point]
19 | CC(NC(=O)c1cccnc1Sc1ccccc1)c1ccc(S(N)(=O)=O)cc1 (stereo not drawn) | inconclusive: 4.61 µM [activator, single point]
20 | CCOc1ccc(S(=O)(=O)NCc2ccco2)c2ccccc12 | inactive
21 | CCN1C(=O)[C@H]2[C@@H](c3ccc(-c4cccc(Cl)c4)cc3)N[C@@](CC(C)C)(C(=O)OC)[C@H]2C1=O | inconclusive: 32.6 µM [falling, single point]

Reprinted at random: three records from the list.
Row | SMILES | Potency
13 | CCC1SC2=NC(C)=C(C(=O)OCC(C)C)C(/C=C/c3ccccc3OC)N2C1=O (stereo not drawn) | inconclusive: 16.4 µM [falling, partial curve]
14 | CN(C)S(=O)(=O)c1cccc(C(=O)Nc2ccc3c(c2)CCC3)c1 | inconclusive: 4.11 µM [activator, partial curve]
18 | OC(COc1ccc2ccccc2c1Cl)CN1CCOCC1 (stereo not drawn) | inconclusive: 16.4 µM [activator, single point]

Following part

Row | SMILES | Potency
22 | CCCCc1ccc(NC(=O)CC(C)(C)C)cc1 | inconclusive: 13 µM [activator, partial curve]
23 | COc1cccc(-c2cc3nc4c(c(NCC(C)(C)CN(C)C)n3n2)CCCC4)c1 | inconclusive: 14.6 µM [activator, partial curve]
24 | CC(=O)NS(=O)(=O)c1ccc(NC(=O)c2cccc(OCc3c(C)noc3C)c2)cc1 | inactive
25 | C=Cc1ccc(Cn2c(=O)n(CCCOC)c(=O)c3sccc32)cc1 | inactive
26 | CCCCOC(=O)c1ccc(NC(=O)C(=O)NCc2cccnc2)cc1 | inconclusive: 25.9 µM [falling, partial curve, poor fit]
27 | COc1ccc(/C=C/C(=O)NC(=S)NNC(=O)c2c(-c3ccccc3)noc2C)cc1 | inconclusive: 18.4 µM [falling, single point]
28 | CCC(CC)C(=O)Nc1cc(C)c2c(=O)oc3ccccc3c2n1 | inconclusive: 1.84 µM [falling, full curve, poor fit]
29 | CCCn1nnc(NC(=O)c2ccccc2Br)n1 | inconclusive: 14.6 µM [activator, partial curve, poor fit]
30 | CN1C(=O)C(C)(C)c2cc(S(=O)(=O)N3CCC(C(=O)NCc4ccc(Cl)cc4)CC3)ccc21 | inconclusive: 7.31 µM [falling, partial curve, poor fit]
31 | CCc1ccc([C@H]2C(C(=O)O)=C[C@@H](CC3CCCC3)N2S(=O)(=O)c2ccc(C)cc2)cc1 | inconclusive: 16.4 µM [falling, single point]
32 | CCCOc1ccc(/C=N/NC(=S)Nc2ccccc2[N+](=O)[O-])c(O)c1 | inconclusive: 29.1 µM [falling, single point]
33 | CC(=O)Nc1ccc(NC(=O)C(C)Sc2nnc(-c3ccc4c(c3)OCO4)o2)cc1 (stereo not drawn) | inconclusive: 20.6 µM [activator, single point]
34 | Cc1nc2ccccc2n1CC(=O)NC(C)C1CC2CCC1C2 (stereo not drawn) | active: 5.17 µM
35 | Cc1oc2ccc(O)c(CN3CCCC3)c2c1C(=O)Nc1ccc(C(C)C)cc1 | inactive
36 | CCCNC(=O)CN1CCC(c2nc3ccccc3[nH]2)CC1 | inconclusive: 6.51 µM [falling, single point]
37 | Cc1cc(=O)n2cc(-c3ccccc3)nc2[nH]1 | inactive
38 | C#CCOc1ccc(-c2nnc(Nc3ccc(NC(C)=O)cc3)c3ccccc23)cc1 | inconclusive: 20.6 µM [falling, partial curve, poor fit]
39 | Cc1cc(N2CCN(C(=O)c3ccco3)CC2)n2nc(C)c(-c3ccccc3)c2n1 | inconclusive: 23.1 µM [falling, partial curve, poor fit]
40 | CCCc1ncc(C(O)(c2ccccc2)c2ccccc2)n1C | inconclusive: 32.6 µM [activator, partial curve, poor fit]
41 | CCN(CC(=O)Nc1ccc(NC(C)=O)cc1)C(=O)c1c(C)nn(-c2ccc(F)cc2)c1Cl | inactive
42 | Cc1[nH]n(-c2ccccc2)c(=O)c1N=Nc1ccc2c(c1)OCCO2 | inconclusive: 4.11 µM [activator, full curve]

Entries listed so far that contain bromine:
Row | SMILES | Potency
4 | O=C(CCCn1c(=O)c2cccn2c2cccnc21)NCc1ccccc1Br | inconclusive: 0.13 µM [activator, full curve, poor fit]
29 | CCCn1nnc(NC(=O)c2ccccc2Br)n1 | inconclusive: 14.6 µM [activator, partial curve, poor fit]

Later entries.

Row | SMILES | Potency
43 | Cc1ccc(NC(=O)COC(=O)c2c(C)nn(-c3ccccc3)c2C)cc1 | inactive
44 | COc1cccc2c(C)nc(Nc3nc(CSc4nnc(C)s4)cc(=O)[nH]3)nc12 | inconclusive: 29.1 µM [activator, single point]
45 | CCc1cc(C(=O)Nc2sc(C)c(CC)c2C#N)no1 | inconclusive: 13 µM [activator, partial curve, poor fit]
46 | CCCCOc1cccc(C(=O)Nc2cc(NC(=O)c3ccco3)ccc2OC)c1 | active: 23.1 µM
47 | COc1ccc2nc(NC(=O)c3ccccc3[N+](=O)[O-])sc2c1 | inconclusive: 25.9 µM [activator, partial curve]
48 | Cc1ccc(-c2nnn(CC(=O)N(c3ccccc3F)C(C(=O)NCC3CCCO3)c3c[nH]c4ccccc34)n2)cc1 (stereo not drawn) | inconclusive: 32.6 µM [falling, partial curve, poor fit]
49 | COc1ccc(-c2noc(CCC(=O)N3CCC(C)CC3)n2)cc1 | inconclusive: 10.3 µM [falling, partial curve, poor fit]
50 | O=C(CSc1nc(-c2ccco2)cc(C(F)(F)F)n1)Nc1ccc(C(=O)N2CCOCC2)cc1 | inconclusive: 0.731 µM [falling, full curve, poor fit]
51 | COc1cc(/C=C2\SC(=S)N(NC(=O)c3ccncc3)C2=O)ccc1O | inconclusive: 32.6 µM [falling, partial curve, poor fit]
52 | Cc1cccc(N2C(=O)c3ccc(C(=O)Nc4cccc(C(=O)O)c4)cc3C2=O)c1 | inactive
53 | COc1ccc(S(=O)(=O)N2CCCCC2)cc1NC(=O)c1ccc(N2CCCC2=O)cc1 | inactive
54 | Cc1ccc(Sc2ncccc2COC(=O)NC(C)C)cc1 | inactive
55 | CCOc1ccccc1N(C(=O)c1snc(C(N)=O)c1N)C(CC)C(=O)NC1CCCC1 (stereo not drawn) | inactive
56 | CC(=O)c1ccc(S(=O)(=O)Nc2c(C)nn(C)c2C)cc1 | inconclusive: 8.2 µM [falling, partial curve, poor fit]
57 | O=C(CN1C(=O)COc2ccccc21)N1CCc2ccccc2C1 | inconclusive: 8.2 µM [falling, partial curve, poor fit]
58 | CC(=O)c1ccc(NC(=O)COc2ccccc2C(=O)Nc2ccccc2)cc1 | inconclusive: 11.6 µM [falling, partial curve, poor fit]
59 | C[C@@H](NC(=O)[C@@H]1Cc2ccccc2CN1C(=O)OC(C)(C)C)C(=O)NC1CCCC1 | inconclusive: 6.51 µM [falling, single point]
60 | Cc1ccc(-c2nnc(Nc3cccc(O)c3)c3ccccc23)cc1S(=O)(=O)NCC1CCCO1 (stereo not drawn) | inconclusive: 25.9 µM [falling, single point]
61 | Cc1ccc(Cl)cc1N1CCN(C(=O)c2ccc3c(c2)CCN3S(=O)(=O)c2ccccc2)CC1 | inconclusive: 18.4 µM [falling, single point]
62 | CC(NC(=S)Nc1ccc(OC(F)F)cc1OC(F)F)C(C)(C)C (stereo not drawn) | inconclusive: 32.6 µM [falling, single point]
63 | COc1ccc(CNC(=O)C2(CC3CC(c4ccccc4)=NO3)CCNCC2)cc1 (stereo not drawn) | inconclusive: 8.2 µM [activator, partial curve, poor fit]
